This is one part of the list.

Chains of the proteins cited; added tags and fusions are not shown. Lines headed by an entry give the natural chain unless they say otherwise; changes in a name come on top.
UniProt Q5T8P6: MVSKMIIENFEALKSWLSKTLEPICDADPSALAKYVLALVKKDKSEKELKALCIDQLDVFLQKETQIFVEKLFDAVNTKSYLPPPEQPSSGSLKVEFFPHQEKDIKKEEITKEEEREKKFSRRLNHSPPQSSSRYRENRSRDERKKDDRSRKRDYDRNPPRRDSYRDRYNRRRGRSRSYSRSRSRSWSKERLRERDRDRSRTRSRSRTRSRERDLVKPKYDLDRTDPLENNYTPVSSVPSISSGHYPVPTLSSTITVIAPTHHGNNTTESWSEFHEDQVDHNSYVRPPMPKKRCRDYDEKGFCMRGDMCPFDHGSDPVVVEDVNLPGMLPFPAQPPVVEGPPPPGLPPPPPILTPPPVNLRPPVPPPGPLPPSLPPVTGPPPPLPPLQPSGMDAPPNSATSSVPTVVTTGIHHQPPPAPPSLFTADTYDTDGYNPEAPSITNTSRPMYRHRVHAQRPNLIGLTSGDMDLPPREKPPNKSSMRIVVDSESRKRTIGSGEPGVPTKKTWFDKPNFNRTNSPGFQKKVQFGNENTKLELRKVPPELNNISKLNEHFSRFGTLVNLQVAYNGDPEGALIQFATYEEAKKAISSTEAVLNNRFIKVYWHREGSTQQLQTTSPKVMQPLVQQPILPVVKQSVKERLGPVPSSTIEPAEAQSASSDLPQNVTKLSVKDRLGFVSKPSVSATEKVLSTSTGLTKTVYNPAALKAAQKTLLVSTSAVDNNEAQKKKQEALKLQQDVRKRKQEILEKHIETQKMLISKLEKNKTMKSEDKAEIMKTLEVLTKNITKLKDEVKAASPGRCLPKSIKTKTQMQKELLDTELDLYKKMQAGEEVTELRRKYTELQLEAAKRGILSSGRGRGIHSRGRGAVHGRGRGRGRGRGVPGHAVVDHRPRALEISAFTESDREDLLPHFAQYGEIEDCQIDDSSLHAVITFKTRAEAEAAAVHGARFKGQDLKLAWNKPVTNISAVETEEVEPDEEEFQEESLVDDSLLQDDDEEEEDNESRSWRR
UniProt Q8NBN7: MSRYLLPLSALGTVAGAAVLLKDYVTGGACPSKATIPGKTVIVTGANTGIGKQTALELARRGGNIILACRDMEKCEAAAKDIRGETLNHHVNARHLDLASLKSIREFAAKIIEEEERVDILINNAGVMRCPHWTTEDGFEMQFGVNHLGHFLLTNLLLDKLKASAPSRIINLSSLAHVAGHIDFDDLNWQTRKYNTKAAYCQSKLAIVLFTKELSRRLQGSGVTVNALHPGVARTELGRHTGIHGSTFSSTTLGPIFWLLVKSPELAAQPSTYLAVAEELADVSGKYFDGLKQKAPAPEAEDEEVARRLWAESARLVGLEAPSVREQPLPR
UniProt P46063: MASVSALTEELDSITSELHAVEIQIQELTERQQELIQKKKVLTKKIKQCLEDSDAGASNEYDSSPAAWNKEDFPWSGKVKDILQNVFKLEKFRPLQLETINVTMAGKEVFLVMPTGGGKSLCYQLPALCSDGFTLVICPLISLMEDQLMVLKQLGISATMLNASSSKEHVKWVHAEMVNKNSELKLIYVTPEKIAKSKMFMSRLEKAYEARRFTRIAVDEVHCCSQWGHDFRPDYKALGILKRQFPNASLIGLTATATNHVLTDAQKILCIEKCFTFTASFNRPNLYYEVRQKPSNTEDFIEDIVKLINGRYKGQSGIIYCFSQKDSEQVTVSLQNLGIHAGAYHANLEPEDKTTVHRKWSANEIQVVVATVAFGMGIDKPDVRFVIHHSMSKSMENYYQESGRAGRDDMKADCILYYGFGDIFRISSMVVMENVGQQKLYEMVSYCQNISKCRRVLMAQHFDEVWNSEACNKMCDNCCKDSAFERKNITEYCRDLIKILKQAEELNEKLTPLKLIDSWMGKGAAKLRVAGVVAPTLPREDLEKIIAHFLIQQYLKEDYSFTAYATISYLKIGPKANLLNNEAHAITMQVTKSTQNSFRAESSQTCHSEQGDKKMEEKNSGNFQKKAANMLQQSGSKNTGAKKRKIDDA
UniProt Q8WZA2: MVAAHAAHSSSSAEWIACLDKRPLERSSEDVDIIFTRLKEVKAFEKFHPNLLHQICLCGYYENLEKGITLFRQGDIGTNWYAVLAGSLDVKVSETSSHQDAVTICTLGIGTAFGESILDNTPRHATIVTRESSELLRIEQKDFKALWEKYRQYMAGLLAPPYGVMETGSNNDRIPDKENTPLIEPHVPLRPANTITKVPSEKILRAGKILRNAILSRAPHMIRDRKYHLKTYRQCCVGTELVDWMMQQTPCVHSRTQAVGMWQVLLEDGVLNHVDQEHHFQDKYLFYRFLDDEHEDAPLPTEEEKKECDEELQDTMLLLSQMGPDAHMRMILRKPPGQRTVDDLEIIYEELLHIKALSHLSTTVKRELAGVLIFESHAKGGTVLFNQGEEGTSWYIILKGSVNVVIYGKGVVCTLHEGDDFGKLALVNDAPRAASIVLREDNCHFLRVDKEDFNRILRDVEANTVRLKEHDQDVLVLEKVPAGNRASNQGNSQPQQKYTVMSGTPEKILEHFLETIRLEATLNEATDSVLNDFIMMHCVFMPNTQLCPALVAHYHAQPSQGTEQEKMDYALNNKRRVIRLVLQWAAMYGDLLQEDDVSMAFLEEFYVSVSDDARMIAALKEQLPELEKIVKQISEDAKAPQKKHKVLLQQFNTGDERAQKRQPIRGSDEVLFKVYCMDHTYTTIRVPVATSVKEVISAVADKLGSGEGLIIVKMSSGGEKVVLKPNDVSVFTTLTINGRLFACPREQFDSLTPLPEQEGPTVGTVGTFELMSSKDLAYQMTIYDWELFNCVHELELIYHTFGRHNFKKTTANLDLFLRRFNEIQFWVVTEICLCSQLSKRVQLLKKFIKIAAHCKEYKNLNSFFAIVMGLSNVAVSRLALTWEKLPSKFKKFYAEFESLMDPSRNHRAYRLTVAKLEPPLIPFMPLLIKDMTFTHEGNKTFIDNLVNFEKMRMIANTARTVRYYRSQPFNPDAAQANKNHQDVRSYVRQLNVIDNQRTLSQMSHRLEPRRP
UniProt Q96HR9: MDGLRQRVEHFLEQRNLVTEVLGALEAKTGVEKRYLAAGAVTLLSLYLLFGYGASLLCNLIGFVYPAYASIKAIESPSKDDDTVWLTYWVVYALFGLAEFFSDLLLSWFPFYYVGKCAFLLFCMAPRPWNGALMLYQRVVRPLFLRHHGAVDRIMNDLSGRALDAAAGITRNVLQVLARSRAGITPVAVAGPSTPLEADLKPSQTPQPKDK
UniProt O75884: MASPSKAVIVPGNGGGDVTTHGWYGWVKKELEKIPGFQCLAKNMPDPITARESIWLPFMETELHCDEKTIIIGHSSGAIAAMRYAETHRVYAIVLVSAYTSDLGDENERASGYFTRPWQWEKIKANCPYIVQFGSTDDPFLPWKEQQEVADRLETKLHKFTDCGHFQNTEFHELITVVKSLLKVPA
UniProt P06400: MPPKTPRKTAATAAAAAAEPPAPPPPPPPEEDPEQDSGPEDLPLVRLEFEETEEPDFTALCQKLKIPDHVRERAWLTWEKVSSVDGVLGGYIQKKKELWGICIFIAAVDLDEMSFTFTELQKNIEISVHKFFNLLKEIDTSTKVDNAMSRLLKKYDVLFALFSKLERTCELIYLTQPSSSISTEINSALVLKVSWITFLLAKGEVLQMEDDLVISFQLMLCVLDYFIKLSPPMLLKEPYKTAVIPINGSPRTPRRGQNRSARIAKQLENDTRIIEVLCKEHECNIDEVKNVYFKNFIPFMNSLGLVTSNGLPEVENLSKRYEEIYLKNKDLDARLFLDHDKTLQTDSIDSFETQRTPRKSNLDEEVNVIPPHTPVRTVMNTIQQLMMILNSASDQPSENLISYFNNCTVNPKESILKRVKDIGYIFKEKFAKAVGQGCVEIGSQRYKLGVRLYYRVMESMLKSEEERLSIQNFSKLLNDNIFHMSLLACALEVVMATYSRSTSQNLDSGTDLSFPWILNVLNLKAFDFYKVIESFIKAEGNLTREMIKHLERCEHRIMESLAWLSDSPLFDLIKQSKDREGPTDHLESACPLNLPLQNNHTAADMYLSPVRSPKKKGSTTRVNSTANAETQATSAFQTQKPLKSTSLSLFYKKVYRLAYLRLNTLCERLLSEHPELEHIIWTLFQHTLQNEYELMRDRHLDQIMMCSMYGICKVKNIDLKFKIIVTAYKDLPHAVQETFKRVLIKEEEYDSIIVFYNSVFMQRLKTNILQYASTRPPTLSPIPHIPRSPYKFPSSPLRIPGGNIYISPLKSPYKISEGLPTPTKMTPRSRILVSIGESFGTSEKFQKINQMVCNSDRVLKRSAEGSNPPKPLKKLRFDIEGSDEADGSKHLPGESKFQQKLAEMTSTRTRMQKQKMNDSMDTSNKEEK
UniProt Q9NTZ6: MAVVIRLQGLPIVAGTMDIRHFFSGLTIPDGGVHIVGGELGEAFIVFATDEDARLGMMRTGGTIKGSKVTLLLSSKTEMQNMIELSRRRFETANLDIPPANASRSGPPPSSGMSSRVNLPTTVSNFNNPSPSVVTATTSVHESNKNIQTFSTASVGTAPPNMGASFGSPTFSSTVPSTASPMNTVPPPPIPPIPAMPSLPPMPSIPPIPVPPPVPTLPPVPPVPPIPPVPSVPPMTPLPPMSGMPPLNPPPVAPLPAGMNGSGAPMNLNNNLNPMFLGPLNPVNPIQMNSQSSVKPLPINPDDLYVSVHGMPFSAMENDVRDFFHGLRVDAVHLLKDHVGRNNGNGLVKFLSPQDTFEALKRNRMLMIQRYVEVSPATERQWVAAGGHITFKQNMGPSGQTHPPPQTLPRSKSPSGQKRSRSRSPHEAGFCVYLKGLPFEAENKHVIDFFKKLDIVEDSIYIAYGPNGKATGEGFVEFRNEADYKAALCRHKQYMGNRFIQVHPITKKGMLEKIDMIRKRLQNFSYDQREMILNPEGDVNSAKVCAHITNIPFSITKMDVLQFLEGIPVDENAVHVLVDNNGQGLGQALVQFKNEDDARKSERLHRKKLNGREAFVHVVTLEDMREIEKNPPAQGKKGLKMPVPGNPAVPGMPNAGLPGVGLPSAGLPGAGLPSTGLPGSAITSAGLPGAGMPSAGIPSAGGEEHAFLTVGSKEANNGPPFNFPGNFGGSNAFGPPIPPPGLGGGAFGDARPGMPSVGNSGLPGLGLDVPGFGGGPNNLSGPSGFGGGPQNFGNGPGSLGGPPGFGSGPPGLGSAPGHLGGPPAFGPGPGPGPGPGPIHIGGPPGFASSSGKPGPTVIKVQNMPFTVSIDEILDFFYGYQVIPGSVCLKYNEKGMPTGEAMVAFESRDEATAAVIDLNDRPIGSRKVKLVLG
UniProt Q5TC82: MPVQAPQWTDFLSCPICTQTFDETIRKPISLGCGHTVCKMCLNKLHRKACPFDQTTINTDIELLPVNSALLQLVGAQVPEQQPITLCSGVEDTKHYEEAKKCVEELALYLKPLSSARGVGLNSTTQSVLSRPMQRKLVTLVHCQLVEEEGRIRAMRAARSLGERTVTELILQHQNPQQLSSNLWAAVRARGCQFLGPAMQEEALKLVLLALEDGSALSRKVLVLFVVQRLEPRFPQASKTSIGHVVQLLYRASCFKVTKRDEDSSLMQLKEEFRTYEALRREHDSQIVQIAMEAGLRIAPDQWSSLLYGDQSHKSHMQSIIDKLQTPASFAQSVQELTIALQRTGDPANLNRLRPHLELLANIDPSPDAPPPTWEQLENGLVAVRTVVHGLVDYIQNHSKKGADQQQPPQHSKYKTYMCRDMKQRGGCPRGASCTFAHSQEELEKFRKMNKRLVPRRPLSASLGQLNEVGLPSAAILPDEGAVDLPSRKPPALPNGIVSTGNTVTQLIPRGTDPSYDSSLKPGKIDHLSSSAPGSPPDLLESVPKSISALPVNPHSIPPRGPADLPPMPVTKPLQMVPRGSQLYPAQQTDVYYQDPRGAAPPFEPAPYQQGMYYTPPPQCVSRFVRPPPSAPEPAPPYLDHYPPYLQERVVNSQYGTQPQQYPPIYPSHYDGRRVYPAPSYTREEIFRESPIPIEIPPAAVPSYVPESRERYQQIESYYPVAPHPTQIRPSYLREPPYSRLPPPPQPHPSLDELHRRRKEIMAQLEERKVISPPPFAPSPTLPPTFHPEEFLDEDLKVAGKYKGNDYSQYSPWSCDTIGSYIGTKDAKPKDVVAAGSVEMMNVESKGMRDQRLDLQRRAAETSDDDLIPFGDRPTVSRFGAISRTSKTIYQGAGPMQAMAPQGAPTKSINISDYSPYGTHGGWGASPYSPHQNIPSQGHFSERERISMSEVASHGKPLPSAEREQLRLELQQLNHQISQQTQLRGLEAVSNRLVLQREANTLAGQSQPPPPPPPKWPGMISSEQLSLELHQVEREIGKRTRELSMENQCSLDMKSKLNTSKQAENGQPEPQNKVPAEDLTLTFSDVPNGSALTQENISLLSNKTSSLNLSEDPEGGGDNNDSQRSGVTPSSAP
UniProt P62877, whole entry, looked up: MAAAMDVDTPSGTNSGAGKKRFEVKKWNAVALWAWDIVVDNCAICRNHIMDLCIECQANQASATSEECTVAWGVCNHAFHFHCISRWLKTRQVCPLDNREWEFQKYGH

Compound in one test: C1=CC=C(C=C1)[C@H](COC2=CC3=C(C=C2)NC(=O)N3)NC(=O)C4=CC=CN(C4=O)CC5=CC(=C(C=C5)F)F
The test is described as follows: log2 fold change, soluble protein after heating vs DMSO (PISA); higher = thermal stabilisation; K562 lysate, 10 uM; active = over 0.2 and 3.5 SD of the protein, either way, in both replicates (recomputed). The essentials: (§1)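 Following dounce homogenisation of K562 pellets in PBS pH 7.4 with 1 mM MgCl2, crude extract at 1 mg/mL protein was incubated for 30 min with 10 μM compound. Aliquots were then heated for 3 min over 48°C-58°C and pooled, NP-40 was added to 0.5% at 4°C, and soluble protein was recovered as the supernatant at 21,000xg for 90 min. Channel-sum-equalised TMTpro 16plex LC-MS/MS quantified this protein. Each value, from duplicates, is a log-two fold change in thermal stability relative to solvent controls.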
With RBMY1E (UniProt A6NEQ0), the log2 fold change was inactive: 0.107.
RFC5 (UniProt P40937): the log2 fold change is inactive: -0.024.
Still for that read-out and setting: under RECQL5 (UniProt O94762) stands inactive: -0.081; under RBM41 (UniProt Q96IZ5), inactive: 0.012.
The same measure, in the same setting: under RBM26 isoform 3 (UniProt Q5T8P6) stands inactive: -0.059; under RCC1 isoform 2 (UniProt P18754), inactive: 0.023.
On the same count and under the same terms, the same measure for RBM5 (UniProt P52756): inactive: -0.074; for RDH13 (UniProt Q8NBN7): inactive: -0.094; for RECQL (UniProt P46063): inactive: 0.057.
With REPIN1 isoform 4 (UniProt Q9BWE0), the log2 fold change was inactive: 0.002.
The same measure, in the same setting: under RETREG3 (UniProt Q86VR2) stands inactive: -0.155.
For RAPGEF4 (UniProt Q8WZA2), the log2 fold change was inactive: 0.
On the same count and under the same terms, under RELN (UniProt P78509) stands inactive: 0.033; under RFC1 (UniProt P35251), inactive: 0.004.
On the same count and under the same terms, under RFWD3 (UniProt Q6PCD5) stands inactive: -0.058; under RBBP4 isoform 2 (UniProt Q09028), inactive: 0.062; under REV3L (UniProt O60673), inactive: 0.003.
As to RCC2 (UniProt Q9P258), the log2 fold change was inactive: 0.004.
The same measure, in the same setting: the same measure for REEP6 (UniProt Q96HR9): inactive: 0.038; for RBBP9 (UniProt O75884): inactive: -0.068; for RBBP7 (UniProt Q16576): inactive: -0.029.
The same measure, in the same setting: under REXO5 (UniProt Q96IC2) stands inactive: -0.01; under RB1 (UniProt P06400), inactive: 0.017; under RCN3 (UniProt Q96D15), inactive: 0.026.
The same measure, in the same setting: the same measure for RBM42 (UniProt Q9BTD8): inactive: -0.014.
Turning to RBM12B (UniProt Q8IXT5), the log2 fold change is inactive: -0.416.
For REXO2 (UniProt Q9Y3B8), the log2 fold change was inactive: 0.
Same read-out and setting: the same measure for RBBP5 isoform 2 (UniProt Q15291): inactive: 0.213.
Same read-out and setting: under RDH10 (UniProt Q8IZV5) stands inactive: 0.147.
As for RFT1 (UniProt Q96AA3), the log2 fold change is inactive: 0.032.
The same measure, in the same setting: under RBM23 isoform 2 (UniProt Q86U06) stands inactive: -0.118; under RBM12 (UniProt Q9NTZ6), inactive: -0.032.
Same read-out and setting: the same measure for RBM26 isoform 2 (UniProt Q5T8P6): inactive: 0.005; for RBM20 (UniProt Q5T481): inactive: -0.361; for RHAG (UniProt Q02094): inactive: 0.033.
On the same count and under the same terms, the same measure for RC3H1 (UniProt Q5TC82): inactive: 0; for RCOR3 isoform 3 (UniProt Q9P2K3): inactive: -0.026; for RBX1 (UniProt P62877): inactive: 0.147.

Compound in a further test: CC1=C(SC2=C1C(=N[C@H](C3=NN=C(N32)C)CC(=O)N)C4=CC=C(C=C4)Cl)C
Described as above. The essentials: as §1
On to RBMY1E (UniProt A6NEQ0), for which the log2 fold change was inactive: -0.012.
For RFC5 (UniProt P40937), the log2 fold change is inactive: 0.018.
Consider RECQL5 (UniProt O94762), for which the log2 fold change is inactive: 0.014.
As to RBM41 (UniProt Q96IZ5), the log2 fold change is inactive: 0.02.
On to RBM26 isoform 3 (UniProt Q5T8P6), for which the log2 fold change is inactive: 0.04.
Same read-out and setting: the same measure for RCC1 isoform 2 (UniProt P18754): inactive: 0.026.
Turning to RBM5 (UniProt P52756), the log2 fold change was inactive: 0.08.
The same measure, in the same setting: the same measure for RDH13 (UniProt Q8NBN7): inactive: 0.05; for RECQL (UniProt P46063): inactive: -0.015; for REPIN1 isoform 4 (UniProt Q9BWE0): inactive: 0.039.
On the same count and under the same terms, under RETREG3 (UniProt Q86VR2) stands inactive: -0.04; under RAPGEF4 (UniProt Q8WZA2), inactive: 0.092.
Still for that read-out and setting: under RELN (UniProt P78509) stands inactive: -0.007; under RFC1 (UniProt P35251), inactive: 0.047; under RFWD3 (UniProt Q6PCD5), inactive: 0.132.
For RBBP4 isoform 2 (UniProt Q09028), the log2 fold change was inactive: 0.013.
Still for that read-out and setting: under REV3L (UniProt O60673) stands inactive: 0.136; under RCC2 (UniProt Q9P258), inactive: -0.009.
Still for that read-out and setting: the same measure for REEP6 (UniProt Q96HR9): inactive: -0.081; for RBBP9 (UniProt O75884): inactive: 0.081.
Consider RBBP7 (UniProt Q16576), for which the log2 fold change was inactive: 0.013.
For REXO5 (UniProt Q96IC2), the log2 fold change is inactive: 0.032.
Same read-out and setting: the same measure for RB1 (UniProt P06400): inactive: -0.009.
For RCN3 (UniProt Q96D15), the log2 fold change is inactive: 0.011.
With RBM42 (UniProt Q9BTD8), the log2 fold change was inactive: -0.003.
The same measure, in the same setting: the same measure for RBM12B (UniProt Q8IXT5): inactive: -0.211; for REXO2 (UniProt Q9Y3B8): inactive: 0.019.
The same measure, in the same setting: the same measure for RBBP5 isoform 2 (UniProt Q15291): inactive: -0.082; for RDH10 (UniProt Q8IZV5): inactive: 0.018.
Still for that read-out and setting: under RFT1 (UniProt Q96AA3) stands inactive: -0.058; under RBM23 isoform 2 (UniProt Q86U06), inactive: -0.084.
In the case of RBM12 (UniProt Q9NTZ6), the log2 fold change was inactive: 0.028.
Turning to RBM26 isoform 2 (UniProt Q5T8P6), the log2 fold change is inactive: 0.016.
On the same count and under the same terms, under RBM20 (UniProt Q5T481) stands inactive: 0.115; under RHAG (UniProt Q02094), inactive: -0.076; under RC3H1 (UniProt Q5TC82), inactive: 0.016.
The same measure, in the same setting: the same measure for RCOR3 isoform 3 (UniProt Q9P2K3): inactive: 0.009.
The same measure, in the same setting: the same measure for RBX1 (UniProt P62877): inactive: -0.028.
